# Experimental data as given in PubChem BioAssay (EPA / NIEHS).
# Chains of the proteins cited; added tags and fusions are not shown. Lines headed by an entry give the natural chain unless they say otherwise; changes in a name come on top.
# UniProt P06212, whole entry, looked up: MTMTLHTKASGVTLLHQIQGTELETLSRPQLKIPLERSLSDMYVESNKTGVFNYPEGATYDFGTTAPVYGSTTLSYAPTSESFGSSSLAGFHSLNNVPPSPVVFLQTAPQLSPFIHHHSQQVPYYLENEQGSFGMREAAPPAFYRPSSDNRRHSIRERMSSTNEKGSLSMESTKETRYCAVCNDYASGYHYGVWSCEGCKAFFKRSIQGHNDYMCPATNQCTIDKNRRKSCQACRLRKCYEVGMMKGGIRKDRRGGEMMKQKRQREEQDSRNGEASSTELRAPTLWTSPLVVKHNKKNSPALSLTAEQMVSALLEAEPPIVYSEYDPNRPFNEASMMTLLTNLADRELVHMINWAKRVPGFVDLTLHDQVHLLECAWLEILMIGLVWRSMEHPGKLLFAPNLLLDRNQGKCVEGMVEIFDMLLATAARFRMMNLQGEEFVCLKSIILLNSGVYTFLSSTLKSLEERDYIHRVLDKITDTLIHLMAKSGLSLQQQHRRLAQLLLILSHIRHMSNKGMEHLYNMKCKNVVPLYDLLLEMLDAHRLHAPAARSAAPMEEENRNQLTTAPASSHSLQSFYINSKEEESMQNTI
# UniProt P37231: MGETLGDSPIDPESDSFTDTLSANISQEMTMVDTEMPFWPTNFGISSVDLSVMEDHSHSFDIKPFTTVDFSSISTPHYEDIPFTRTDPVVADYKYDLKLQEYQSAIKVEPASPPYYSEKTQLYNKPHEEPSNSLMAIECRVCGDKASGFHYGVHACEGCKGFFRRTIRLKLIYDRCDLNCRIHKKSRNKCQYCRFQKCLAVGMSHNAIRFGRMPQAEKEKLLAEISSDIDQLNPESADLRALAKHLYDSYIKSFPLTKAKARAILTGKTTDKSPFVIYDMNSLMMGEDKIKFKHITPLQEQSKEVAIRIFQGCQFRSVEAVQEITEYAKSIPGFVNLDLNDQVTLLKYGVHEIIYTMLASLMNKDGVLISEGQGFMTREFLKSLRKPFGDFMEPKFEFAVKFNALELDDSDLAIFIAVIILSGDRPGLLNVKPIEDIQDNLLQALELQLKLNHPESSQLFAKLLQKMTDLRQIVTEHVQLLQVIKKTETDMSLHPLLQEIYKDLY
# UniProt P37238, whole entry, looked up: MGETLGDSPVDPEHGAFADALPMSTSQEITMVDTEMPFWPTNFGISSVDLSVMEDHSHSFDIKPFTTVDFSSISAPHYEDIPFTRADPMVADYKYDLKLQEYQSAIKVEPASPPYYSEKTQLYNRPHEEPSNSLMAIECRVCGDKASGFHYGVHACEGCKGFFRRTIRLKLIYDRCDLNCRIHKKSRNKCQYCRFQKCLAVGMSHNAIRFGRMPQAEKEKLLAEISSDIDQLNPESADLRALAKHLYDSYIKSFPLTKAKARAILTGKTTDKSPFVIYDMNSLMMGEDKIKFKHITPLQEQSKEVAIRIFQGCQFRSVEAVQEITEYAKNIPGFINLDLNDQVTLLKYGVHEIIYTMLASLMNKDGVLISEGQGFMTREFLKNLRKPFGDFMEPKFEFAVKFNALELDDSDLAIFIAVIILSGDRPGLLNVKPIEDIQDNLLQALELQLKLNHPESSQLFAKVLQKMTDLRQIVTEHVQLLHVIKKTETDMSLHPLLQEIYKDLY
# UniProt O97775: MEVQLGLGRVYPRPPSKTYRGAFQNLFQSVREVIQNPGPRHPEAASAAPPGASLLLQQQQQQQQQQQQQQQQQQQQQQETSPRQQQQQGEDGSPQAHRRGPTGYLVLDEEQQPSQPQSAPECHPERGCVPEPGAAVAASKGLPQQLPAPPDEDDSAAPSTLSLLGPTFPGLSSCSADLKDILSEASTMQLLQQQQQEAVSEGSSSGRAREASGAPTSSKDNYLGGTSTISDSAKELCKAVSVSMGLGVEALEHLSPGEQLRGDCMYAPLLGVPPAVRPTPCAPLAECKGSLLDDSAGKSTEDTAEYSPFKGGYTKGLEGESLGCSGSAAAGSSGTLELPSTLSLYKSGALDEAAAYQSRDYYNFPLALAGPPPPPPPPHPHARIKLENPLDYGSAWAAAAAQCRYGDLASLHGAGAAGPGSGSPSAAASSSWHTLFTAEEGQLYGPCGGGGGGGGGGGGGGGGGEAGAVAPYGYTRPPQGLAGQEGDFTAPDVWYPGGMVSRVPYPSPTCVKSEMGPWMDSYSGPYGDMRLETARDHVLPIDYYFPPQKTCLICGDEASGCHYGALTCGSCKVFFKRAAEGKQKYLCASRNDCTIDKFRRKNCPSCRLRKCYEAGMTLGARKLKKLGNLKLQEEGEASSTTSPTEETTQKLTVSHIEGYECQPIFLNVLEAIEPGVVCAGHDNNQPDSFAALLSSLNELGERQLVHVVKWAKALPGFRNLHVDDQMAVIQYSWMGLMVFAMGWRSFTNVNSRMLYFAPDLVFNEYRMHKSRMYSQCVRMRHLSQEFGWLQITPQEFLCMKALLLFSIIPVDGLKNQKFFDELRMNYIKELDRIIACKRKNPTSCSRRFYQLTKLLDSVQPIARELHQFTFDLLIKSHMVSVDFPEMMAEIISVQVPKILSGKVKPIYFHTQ
# UniProt P15207: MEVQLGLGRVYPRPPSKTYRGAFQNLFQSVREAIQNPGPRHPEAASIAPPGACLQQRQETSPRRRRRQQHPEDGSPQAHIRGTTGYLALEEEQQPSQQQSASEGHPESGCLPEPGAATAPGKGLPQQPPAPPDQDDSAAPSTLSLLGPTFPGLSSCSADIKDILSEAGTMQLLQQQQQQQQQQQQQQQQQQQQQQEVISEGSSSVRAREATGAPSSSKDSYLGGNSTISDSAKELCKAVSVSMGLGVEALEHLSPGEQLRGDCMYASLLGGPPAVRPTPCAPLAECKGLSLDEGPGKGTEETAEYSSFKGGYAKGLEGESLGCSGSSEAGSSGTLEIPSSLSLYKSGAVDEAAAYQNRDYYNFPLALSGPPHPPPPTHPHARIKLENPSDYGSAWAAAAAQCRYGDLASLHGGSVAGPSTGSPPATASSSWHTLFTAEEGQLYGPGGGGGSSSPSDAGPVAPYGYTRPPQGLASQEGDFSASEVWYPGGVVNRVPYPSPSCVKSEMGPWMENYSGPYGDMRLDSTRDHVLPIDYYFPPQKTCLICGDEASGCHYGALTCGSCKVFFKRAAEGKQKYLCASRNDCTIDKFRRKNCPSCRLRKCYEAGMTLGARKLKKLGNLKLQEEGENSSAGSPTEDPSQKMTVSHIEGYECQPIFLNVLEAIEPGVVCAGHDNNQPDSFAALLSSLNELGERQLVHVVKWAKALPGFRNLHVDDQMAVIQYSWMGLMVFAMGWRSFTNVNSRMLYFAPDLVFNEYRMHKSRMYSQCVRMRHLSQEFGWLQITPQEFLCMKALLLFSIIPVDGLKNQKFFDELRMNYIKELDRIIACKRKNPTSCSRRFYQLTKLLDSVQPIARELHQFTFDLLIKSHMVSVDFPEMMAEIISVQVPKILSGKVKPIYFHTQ
# UniProt P03372, whole entry, looked up: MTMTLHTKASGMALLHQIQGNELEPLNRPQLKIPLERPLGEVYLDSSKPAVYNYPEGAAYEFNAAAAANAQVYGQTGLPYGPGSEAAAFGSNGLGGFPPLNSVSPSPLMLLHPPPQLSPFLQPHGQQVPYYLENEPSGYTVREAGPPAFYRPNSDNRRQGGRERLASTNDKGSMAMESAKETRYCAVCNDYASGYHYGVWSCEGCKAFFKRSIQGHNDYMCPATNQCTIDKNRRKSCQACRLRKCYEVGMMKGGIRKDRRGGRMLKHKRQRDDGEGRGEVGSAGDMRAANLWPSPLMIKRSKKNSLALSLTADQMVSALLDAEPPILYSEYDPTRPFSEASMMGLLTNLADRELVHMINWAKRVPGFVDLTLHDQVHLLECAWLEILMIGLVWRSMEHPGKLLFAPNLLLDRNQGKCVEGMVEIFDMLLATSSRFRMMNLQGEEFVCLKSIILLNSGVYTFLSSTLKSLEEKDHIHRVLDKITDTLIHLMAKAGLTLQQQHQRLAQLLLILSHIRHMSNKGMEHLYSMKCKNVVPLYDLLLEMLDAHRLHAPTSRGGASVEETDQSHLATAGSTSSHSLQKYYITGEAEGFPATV
# UniProt P46098, whole entry, looked up: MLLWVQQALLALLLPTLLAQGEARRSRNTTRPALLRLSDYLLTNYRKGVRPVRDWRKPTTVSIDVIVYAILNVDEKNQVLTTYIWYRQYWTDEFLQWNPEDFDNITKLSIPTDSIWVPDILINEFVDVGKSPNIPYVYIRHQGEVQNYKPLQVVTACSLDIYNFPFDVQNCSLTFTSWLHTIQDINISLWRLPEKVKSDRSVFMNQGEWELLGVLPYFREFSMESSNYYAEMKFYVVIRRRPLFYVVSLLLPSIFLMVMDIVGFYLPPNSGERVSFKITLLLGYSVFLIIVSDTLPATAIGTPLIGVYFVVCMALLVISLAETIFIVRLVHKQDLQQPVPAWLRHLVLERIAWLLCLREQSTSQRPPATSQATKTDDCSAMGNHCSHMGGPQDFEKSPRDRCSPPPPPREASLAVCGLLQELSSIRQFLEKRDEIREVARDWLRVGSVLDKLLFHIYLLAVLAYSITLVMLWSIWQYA
# UniProt O15379: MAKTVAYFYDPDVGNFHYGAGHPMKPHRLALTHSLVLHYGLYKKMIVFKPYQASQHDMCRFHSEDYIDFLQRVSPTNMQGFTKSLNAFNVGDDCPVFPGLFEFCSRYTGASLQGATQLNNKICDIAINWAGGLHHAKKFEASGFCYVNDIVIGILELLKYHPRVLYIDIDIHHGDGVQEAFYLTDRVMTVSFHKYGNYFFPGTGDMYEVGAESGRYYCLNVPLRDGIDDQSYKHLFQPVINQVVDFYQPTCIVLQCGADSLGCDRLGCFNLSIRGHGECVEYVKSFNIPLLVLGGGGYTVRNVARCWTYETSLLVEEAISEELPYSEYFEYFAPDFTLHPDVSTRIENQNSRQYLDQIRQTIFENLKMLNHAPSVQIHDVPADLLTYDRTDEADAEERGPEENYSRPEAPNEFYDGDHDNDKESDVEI
# UniProt P10827: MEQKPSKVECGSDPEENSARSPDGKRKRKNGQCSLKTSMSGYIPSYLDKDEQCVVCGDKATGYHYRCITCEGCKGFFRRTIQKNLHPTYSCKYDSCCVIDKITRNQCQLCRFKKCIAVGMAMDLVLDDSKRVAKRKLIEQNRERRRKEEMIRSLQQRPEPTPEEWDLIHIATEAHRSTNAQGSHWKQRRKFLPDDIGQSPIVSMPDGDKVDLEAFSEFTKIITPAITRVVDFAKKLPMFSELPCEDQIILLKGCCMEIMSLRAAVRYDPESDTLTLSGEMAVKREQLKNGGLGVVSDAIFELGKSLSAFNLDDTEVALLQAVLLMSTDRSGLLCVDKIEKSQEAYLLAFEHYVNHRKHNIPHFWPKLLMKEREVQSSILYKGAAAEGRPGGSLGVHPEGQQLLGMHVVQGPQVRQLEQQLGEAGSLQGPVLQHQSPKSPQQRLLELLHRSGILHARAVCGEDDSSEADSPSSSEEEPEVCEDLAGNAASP
# UniProt P79208, whole entry, looked up: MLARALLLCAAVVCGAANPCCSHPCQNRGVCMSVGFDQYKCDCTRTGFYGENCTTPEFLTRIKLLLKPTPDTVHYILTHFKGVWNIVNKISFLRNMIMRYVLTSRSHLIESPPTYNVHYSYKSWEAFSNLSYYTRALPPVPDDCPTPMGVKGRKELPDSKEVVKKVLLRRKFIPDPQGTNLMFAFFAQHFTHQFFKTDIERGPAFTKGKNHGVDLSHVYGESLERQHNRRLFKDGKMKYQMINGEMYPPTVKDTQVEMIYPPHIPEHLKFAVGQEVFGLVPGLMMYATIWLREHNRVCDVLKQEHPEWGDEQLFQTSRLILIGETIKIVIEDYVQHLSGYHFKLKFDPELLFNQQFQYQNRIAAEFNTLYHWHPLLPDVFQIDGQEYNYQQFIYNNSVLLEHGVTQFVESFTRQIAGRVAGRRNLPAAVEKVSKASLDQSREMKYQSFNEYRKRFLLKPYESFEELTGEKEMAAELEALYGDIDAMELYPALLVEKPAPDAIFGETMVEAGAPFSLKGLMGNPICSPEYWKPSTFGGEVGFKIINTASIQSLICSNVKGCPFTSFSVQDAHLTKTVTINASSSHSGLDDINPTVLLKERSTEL
# UniProt Q92731, whole entry, looked up: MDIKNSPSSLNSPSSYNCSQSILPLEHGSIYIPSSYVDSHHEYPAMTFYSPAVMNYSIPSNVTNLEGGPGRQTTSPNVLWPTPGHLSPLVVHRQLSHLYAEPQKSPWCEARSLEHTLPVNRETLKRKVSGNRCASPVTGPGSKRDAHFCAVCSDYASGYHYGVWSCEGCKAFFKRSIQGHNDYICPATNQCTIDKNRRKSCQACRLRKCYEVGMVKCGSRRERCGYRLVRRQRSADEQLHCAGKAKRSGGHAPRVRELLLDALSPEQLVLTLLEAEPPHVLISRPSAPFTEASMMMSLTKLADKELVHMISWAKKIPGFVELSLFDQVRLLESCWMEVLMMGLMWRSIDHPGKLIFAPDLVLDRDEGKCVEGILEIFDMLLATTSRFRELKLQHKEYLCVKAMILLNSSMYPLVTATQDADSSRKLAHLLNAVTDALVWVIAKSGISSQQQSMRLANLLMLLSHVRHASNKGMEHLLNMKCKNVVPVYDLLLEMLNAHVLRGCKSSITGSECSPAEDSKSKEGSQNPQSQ
# The inconclusive results got no clear call from the source; some entries with a clear call stand among them for comparison. For some assays here: Potencies of inconclusive entries are doubtful fits and often do not repeat. Calls of active or inactive are those of the source. Rule for the calls: active = hit-call score of the fitted dose curve at least 0.9, where 1 is the maximum; inconclusive = response in the unintended direction; inactive = score below 0.9.
# Assays:
# [1] = molecular target: chicken Estrogen Receptor (ESR1), ESR1 (gene 396099) (UniProt P06212); test: ATG_chERa_XSP1: Attagene TRANS-FACTORIAL Multi-Species (XSP1) HepG2 Assay for chicken Estrogen Receptor (ESR1) (AID 2283779)
# In short: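 Read-out: fluorescent reporter mRNA fragments resolved by capillary electrophoresis after RT-PCR and HpaI digestion. Transfected HepG2 cells carried chimeric NR-Gal4 constructs, were dosed 24 h with 3 nM 6-alpha-fluorotestosterone added, and activity was fitted upward relative to DMSO.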
# [2] = system: turtle Estrogen Receptor (ESR1), gene 101933533; test: ATG_trERa_XSP1: Attagene TRANS-FACTORIAL Multi-Species (XSP1) HepG2 Assay for turtle Estrogen Receptor (ESR1) (AID 2283781)
# In short: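 Transfect HepG2 with reporter units → dose chemical 24 h (medium has 3 nM 6-alpha-fluorotestosterone) → isolate RNA, RT-PCR → FAM primer extension, HpaI digest → capillary electrophoresis; gain of signal vs DMSO.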
# [3] = ATG_M_06_XSP1: Attagene TRANS-FACTORIAL Multi-Species (XSP1) HepG2 Assay for M06 Transcription Factor (Internal Marker) (AID 2283790)
# In short: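 This background-control readout tracks M06 reporter mRNA, measured by RT-PCR and capillary electrophoresis. HepG2 cells transiently carrying the GAL4-UAS reporter panel were dosed for 24 h with 3 nM 6-alpha-fluorotestosterone added for partial AR stimulation; increases were scored relative to DMSO.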
# [4] = molecular target: Peroxisome proliferator-activated receptor gamma (Homo sapiens) (UniProt P37231); test: ATG_hPPARg_XSP1: Attagene TRANS-FACTORIAL Multi-Species (XSP1) HepG2 Assay for human Peroxisome Proliferator-activated Receptor gamma (PPARg) (AID 2283800)
# In short: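 Reporter mRNA induction, measured by RT-PCR with capillary electrophoresis 24 h after dosing, scored as gain over DMSO. Transfected HepG2 cells express exogenous NR-Gal4 chimeras driving GAL4-UAS reporters; medium includes 3 nM 6-alpha-fluorotestosterone.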
# [5] = molecular target: mouse Peroxisome Proliferator-activated Receptor gamma (PPARg), Pparg (gene 19016) (UniProt P37238); test: ATG_mPPARg_XSP1: Attagene TRANS-FACTORIAL Multi-Species (XSP1) HepG2 Assay for mouse Peroxisome Proliferator-activated Receptor gamma (PPARg) (AID 2283802)
# In short: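 Readout is reporter mRNA induction, measured by RT-PCR with 6-FAM labelling, HpaI digestion and capillary electrophoresis, 24 h post-dose relative to DMSO. Transient multi-reporter transfection of human HepG2 with mouse PPARg–GAL4 fusion; 3 nM 6-alpha-fluorotestosterone included.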
# [6] = system: frog Estrogen Receptor (ER), gene 398734; test: ATG_frER1_XSP2: Attagene TRANS-FACTORIAL Multi-Species (XSP2) HepG2 Assay for frog Estrogen Receptor (ER) (AID 2283821);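 note: hits raise reporter mRNA above DMSO baseline so potency means agonist or activator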
# In short: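 Reporter mRNA induction, detected as fluorescence after RT-PCR and capillary electrophoresis, is the endpoint; activity is fitted upward against DMSO. Cells are human liver HepG2 carrying transfected NR-Gal4 chimeras with GAL4-UAS-driven reporters, harvested 24 h post-dosing.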
# [7] = CCTE_Mundy_HCI_iCellGluta_NOG_NeuronCount: CCTE's Neurite Outgrowth Assay in iCellGluta cells for Neuron Count, Mundy Lab (AID 2284340);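 note: cells fixed about 48 h after compound addition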
# In short: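 Neuron count read by automated high-content imaging of Hoechst 33342 and betaIII-tubulin/Alexa Fluor-488 labelling in human iPSC glutamatergic neurons. Activity fitted relative to DMSO.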
# [8] = molecular target: chimpanzee Androgen Receptor (AR), AR (gene 747460) (UniProt O97775); test: NVS_NR_cAR: NovaScreen (NVS) Nuclear Receptor Binding Assay for chimpanzee Androgen Receptor (AR) (AID 2283346);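 note: radioligand displacement from AR measured by scintillation counting in a cell-free assay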
# In short: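 Radioligand binding to chimpanzee AR expressed in Sf9/Sf21 cells, cell-free, measured 72 h after dosing by lysate-based scintillation counting. Loss of signal vs DMSO; initial duplicate screen at 25 uM, actives retested in concentration series.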
# [9] = molecular target: rat Androgen Receptor (AR), Ar (gene 24208) (UniProt P15207); test: NVS_NR_rAR: NovaScreen (NVS) Nuclear Receptor Binding Assay for rat Androgen Receptor (AR) (AID 2283366)
# In short: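 Actives from a duplicate single-concentration (25 uM) primary run went on to concentration series. Displacement of radioligand was counted by filtration and scintillation, 18 h post-dose, using prostate extracts from testosterone-pretreated rats, with DMSO as baseline.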
# [10] = molecular target: Estrogen receptor (Homo sapiens) (UniProt P03372); test: CCTE_Deisenroth_AIME_384WELL_LUC_Active: CCTE's 384-well Estrogen Receptor Transactivation Assay with AIME metabolic competence (ERTA luciferase; metabolism positive), Deisenroth Lab (AID 2284030)
# In short: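 In this metabolism-positive format, a 2-hour exposure to alginate-immobilized rat S9 precedes a 24 hour luciferase transactivation readout in VM7Luc4E2 cells. Dosing spans 10 concentrations from 0.002 to 200 uM.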
# [11] = molecular target: Estrogen receptor (Homo sapiens) (UniProt P03372); test: CCTE_Deisenroth_AIME_384WELL_LUC_Inactive: CCTE's 384-well Estrogen Receptor Transactivation Assay without AIME metabolic competence (ERTA luciferase; metabolism negative), Deisenroth Lab (AID 2284038);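 note: VM7Luc4E2 breast cells given medium preincubated 2 h with S9-free microspheres; hits raise estrogen receptor luciferase signal so potencies reflect agonists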
# In short: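 Metabolism-negative mode: AIME lids stamped in alginate-water, no hepatic S9. 2 h chemical incubation → medium onto VM7Luc4E2 ERTA, 24 h. Readout luciferase luminescence; gain-of-signal fit vs 17beta-estradiol. Conc. 0.002 - 200 uM.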
# [12] = molecular target: human Serotonin, 5-Hydroxytryptamine Receptor 3 (5HT3), HTR3A (gene 3359) (UniProt P46098); test: NVS_LGIC_h5HT3: NovaScreen (NVS) Ligand-Gated Ion Channel Assay for human Serotonin, 5-Hydroxytryptamine Receptor 3 (5HT3) (AID 2283325)
# In short: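 Initially tested at 25 uM in duplicate, then up to 50 uM in concentration-response for actives, compounds competed with a radioligand for HEK293-derived human 5-HT3 receptor. Bound counts were measured by filtration and scintillation at 1 h; loss of signal versus DMSO.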
# [13] = system: 5-hydroxytryptamine receptor 2C (pig); test: NVS_GPCR_p5HT2C: NovaScreen (NVS) G Protein-Coupled Receptor Assay for pig Serotonin, 5-Hydroxytryptamine Receptor 2C (5HT2C) (AID 2283288)
# In short: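 Radioligand displacement on membranes from pig choroid plexus, detected by filter scintillation counting after 1 h. Tested first at a single 25 uM in duplicate, then in concentration-response for actives; DMSO served as baseline.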
# [14] = molecular target: human AKT serine/threonine Kinase 1 (AKT1), AKT1 (gene 207) (UniProt P31749); test: NVS_ENZ_hAKT1: NovaScreen (NVS) Enzymatic Assay for human AKT serine/threonine Kinase 1 (AKT1) (AID 2283138)
# In short: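 A biochemical assay with recombinant enzyme and specific substrate, read by fluorescence intensity with mobility-shift separation 1 hour after dosing. Actives from 25 uM duplicate screening were titrated up to 50 uM against DMSO baseline.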
# [15] = molecular target: Histone deacetylase 3 (Homo sapiens) (UniProt O15379); test: NVS_ENZ_hHDAC3: NovaScreen (NVS) Enzymatic Assay for human Histone Deacetylase 3 (HDAC3) (AID 2283163)
# In short: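 Cell-free enzyme format: loss of fluorescent product after mobility-shift separation, 1 h incubation, recombinant human HDAC3. Single 25 uM duplicate screen first, then concentration series to a 50 uM top for hits; DMSO as baseline.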
# [16] = molecular target: human Thyroid Receptor Alpha (TRa), THRA (gene 7067) (UniProt P10827); test: NVS_NR_hTRa_Antagonist: NovaScreen (NVS) Nuclear Receptor Binding Assay for human Thyroid Receptor Alpha Antagonism (TRa) (AID 2283362);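 note: activity is loss of signal relative to DMSO baseline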
# In short: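 Chemicals were first screened in duplicate at 25 uM, then actives were retested in concentration series. Binding to the extracted receptor was measured 1 h after dosing by AlphaLISA chemiluminescence, with decreased signal versus DMSO scored as activity.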
# [17] = molecular target: sheep Cyclooxygenase-2 (Cox2), PTGS2 (gene 443460) (UniProt P79208); test: NVS_ENZ_oCOX2: NovaScreen (NVS) Enzymatic Assay for sheep Cyclooxygenase-2 (Cox2) (AID 2283231)
# In short: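 Ovine placental enzyme, cell-free; chemical added, 0.66 h, absorbance (colorimetric). Screen 25 uM in duplicate; ≥threshold hits titrated, top 50 uM. Inhibition = signal loss vs DMSO.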
# [18] = molecular target: rat Catechol-O-Methyl Transferase (COMT), Comt (gene 24267) (UniProt P22734); test: NVS_ENZ_rCOMT: NovaScreen (NVS) Enzymatic Assay for rat Catechol-O-Methyl Transferase (COMT) (AID 2283235)
# In short: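 Rat dorsal striatum extract served as COMT source; product quantified by HPLC/spectrophotometry, read at 0 h after dosing. Primary single-concentration screen at 25 uM, followed by concentration series to a 50 uM maximum.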
# [19] = system: Thyroperoxidase (TPO), gene 54314; test: CCTE_Simmons_AUR_rTPO: CCTE's Amplex UltraRed Assay for Thyroperoxidase (TPO) Inhibition, Simmons Lab (AID 2283662);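 note: potency for loss of signal meaning inhibition of peroxidase activity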
# In short: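 Cell-free peroxidase activity assay using rat thyroid gland microsomes with excess H2O2 (300 uM) and 25 uM Amplex UltraRed. Compounds tested from 5 nM to 87.5 uM; fluorescence measured after 30 min at 37C, analysed relative to DMSO baseline.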
# [20] = molecular target: Estrogen receptor beta (Homo sapiens) (UniProt Q92731); test: ATG_hERb_XSP1: Attagene TRANS-FACTORIAL Multi-Species (XSP1) HepG2 Assay for human Estrogen Receptor (ESR2) (AID 2283788)
# In short: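 Transient MRTU transfection of HepG2; ERβ–GAL4 TRANS format; 24 h dosing; 3 nM 6α-fluorotestosterone co-added; RNA → RT-PCR → 6-FAM primer extension → CE; activity vs DMSO.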
smiles,measurement,setting,value
CN(C)C(=N)N=C(N)N,AC50,[1],inconclusive: 26.4 µM
same,AC50,[2],inconclusive: 26.8 µM
same,AC50,[3],inconclusive: 2.54 µM
same,AC50,[4],inconclusive: 0.438 µM
same,AC50,[5],inconclusive: 0.00914 µM
same,AC50,[6],inconclusive: 24.7 µM
same,AC50,[7],inconclusive: 0.00812 µM
CCN1CN(CC)CN(CC)C1,outcome,[8],inactive
N#Cc1ccc(C(c2ccc(C#N)cc2)n2cncn2)cc1,AC50,[9],inconclusive: 7.97 µM
CCCCCCCCCCCCCCCS(=O)(=O)Oc1ccccc1,AC50,[10],active: 19.5 µM
same,AC50,[11],active: 9.6 µM
CC(C)(O)c1coc(S(=O)(=O)NC(=O)Nc2c3c(cc4c2CCC4)CCC3)c1,AC50,[12],inconclusive: 25 µM
C=CCc1ccc(OC)c(OC)c1,outcome,[13],inactive
Nc1ccc2c(c1)C(=O)c1ccccc1C2=O,outcome,[14],inactive
same,AC50,[15],inconclusive: 25 µM
same,outcome,[16],inactive
Oc1ccccc1O,outcome,[17],inactive
same,outcome,[18],inactive
CN1CCCC1=O,AC50,[19],inconclusive: 43.8 µM
CCCCC(CC)COC(=O)c1ccc(O)cc1 (stereo not given),outcome,[20],inactive

# Rewritten as tab-separated lines: part of the list above.
smiles	measurement	setting	value
CN(C)C(=N)N=C(N)N	AC50	[7]	inconclusive: 0.00812 µM
N#Cc1ccc(C(c2ccc(C#N)cc2)n2cncn2)cc1	AC50	[9]	inconclusive: 7.97 µM
